# Screening data, single-dose tests

Amino acid sequences for entries named in this document (tags omitted). Residues count along the entry.
UniProt I6X8D2, whole entry: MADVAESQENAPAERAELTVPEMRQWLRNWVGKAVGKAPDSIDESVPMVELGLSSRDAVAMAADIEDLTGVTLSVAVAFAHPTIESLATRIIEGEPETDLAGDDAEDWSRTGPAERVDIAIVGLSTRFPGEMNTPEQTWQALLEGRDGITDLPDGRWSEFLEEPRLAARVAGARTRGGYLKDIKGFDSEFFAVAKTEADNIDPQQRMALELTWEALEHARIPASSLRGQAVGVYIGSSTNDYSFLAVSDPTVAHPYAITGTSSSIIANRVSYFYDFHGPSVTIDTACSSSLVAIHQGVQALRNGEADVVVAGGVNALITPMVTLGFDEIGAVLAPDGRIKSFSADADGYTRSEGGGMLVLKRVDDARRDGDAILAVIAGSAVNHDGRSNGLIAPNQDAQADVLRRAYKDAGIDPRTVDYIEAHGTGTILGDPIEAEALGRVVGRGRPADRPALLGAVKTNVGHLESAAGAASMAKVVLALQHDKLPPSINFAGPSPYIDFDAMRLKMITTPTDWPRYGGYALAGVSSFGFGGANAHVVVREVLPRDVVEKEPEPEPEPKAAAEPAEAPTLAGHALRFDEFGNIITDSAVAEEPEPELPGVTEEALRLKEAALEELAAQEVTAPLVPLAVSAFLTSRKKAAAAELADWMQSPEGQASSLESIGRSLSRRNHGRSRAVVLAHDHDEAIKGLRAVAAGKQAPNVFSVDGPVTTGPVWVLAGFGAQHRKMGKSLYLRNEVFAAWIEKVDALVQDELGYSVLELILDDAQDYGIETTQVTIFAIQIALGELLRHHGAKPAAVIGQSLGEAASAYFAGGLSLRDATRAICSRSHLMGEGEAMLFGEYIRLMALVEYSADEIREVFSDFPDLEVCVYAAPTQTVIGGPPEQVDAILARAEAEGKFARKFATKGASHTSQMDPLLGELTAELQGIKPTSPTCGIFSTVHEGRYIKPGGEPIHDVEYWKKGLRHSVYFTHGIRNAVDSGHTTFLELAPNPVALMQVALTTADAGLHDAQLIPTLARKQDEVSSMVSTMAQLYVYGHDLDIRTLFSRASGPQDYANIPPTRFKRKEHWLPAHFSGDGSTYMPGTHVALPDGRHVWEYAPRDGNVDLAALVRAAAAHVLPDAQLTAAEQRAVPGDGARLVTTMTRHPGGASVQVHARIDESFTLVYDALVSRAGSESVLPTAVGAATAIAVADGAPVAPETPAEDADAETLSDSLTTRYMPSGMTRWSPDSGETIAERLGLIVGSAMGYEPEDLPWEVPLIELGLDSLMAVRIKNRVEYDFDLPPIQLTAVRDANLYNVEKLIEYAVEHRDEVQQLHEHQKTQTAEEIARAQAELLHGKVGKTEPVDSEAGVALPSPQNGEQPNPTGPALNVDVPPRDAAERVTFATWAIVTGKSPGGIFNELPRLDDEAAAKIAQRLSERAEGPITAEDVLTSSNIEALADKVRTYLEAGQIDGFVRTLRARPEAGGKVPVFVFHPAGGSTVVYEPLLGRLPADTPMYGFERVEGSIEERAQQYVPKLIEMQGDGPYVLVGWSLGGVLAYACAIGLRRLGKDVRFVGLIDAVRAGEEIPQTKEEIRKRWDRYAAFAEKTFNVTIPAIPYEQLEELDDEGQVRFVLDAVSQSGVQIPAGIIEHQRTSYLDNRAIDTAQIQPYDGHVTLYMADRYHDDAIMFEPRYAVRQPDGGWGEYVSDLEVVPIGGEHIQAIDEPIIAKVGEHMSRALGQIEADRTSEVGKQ
UniProt Q4DA54, 1-478: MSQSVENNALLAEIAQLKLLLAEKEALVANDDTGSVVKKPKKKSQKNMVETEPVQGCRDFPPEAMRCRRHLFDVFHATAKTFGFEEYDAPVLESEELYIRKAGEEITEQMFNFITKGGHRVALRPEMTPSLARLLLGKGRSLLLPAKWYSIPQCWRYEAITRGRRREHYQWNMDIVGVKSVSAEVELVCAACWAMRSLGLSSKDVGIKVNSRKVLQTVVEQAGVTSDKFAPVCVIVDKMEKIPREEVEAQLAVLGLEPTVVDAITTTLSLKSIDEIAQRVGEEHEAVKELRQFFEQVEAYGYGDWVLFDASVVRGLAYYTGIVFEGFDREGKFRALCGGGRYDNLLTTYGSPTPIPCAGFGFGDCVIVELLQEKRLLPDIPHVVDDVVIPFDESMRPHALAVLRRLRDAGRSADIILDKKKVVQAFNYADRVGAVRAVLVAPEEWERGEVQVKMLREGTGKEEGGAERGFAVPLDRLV
UniProt P9WPC5, whole entry: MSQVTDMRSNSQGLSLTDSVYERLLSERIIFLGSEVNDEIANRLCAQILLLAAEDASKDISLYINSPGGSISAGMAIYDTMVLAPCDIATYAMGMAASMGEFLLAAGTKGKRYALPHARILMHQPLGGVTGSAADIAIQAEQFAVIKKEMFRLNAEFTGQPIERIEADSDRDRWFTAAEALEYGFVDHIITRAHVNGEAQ
UniProt P9WPC3, whole entry partner: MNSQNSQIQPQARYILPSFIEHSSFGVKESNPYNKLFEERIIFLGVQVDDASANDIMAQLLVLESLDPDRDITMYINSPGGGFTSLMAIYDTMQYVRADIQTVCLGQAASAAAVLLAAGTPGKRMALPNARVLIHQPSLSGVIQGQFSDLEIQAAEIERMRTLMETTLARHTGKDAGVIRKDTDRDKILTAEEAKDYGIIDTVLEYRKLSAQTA
UniProt A4I591, 1-473: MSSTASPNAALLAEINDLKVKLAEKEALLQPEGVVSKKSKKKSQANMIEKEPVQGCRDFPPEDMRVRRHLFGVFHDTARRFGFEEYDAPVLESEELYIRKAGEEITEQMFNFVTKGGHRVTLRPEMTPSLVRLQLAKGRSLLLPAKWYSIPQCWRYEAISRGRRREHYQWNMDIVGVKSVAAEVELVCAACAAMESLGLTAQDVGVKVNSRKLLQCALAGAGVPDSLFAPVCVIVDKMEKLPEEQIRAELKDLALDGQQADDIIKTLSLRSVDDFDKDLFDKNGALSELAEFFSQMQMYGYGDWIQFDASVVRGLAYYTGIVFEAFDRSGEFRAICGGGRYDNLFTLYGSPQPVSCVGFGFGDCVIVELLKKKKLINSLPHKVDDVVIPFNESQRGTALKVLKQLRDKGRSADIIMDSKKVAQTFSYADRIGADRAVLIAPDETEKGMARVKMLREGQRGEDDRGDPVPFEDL

Measurements from “University of Dundee, Small-Polar-MMV Screening Library” (2021), ChEMBL document CHEMBL3988442.

Values are the deposited “Percent Effect”, in %. The record does not define 0% and 100%; most values in the screen are far below 50% and negative numbers occur (in some assays of this library far below -100). Compounds were drawn at random from those tested, without regard to their results. A dash means the value is not listed here; it may have been measured.

Pks13 thioesterase: 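Enzyme assay of the thioesterase domain of polyketide synthase 13; the read-out is not stated. Target: Polyketide synthase Pks13, Mycobacterium tuberculosis (UniProt I6X8D2). Concentration: 30 µM. The record gives no direction; the compounds picked for IC50 retests had high values, so higher reads as stronger inhibition. Of about 67,000 compounds tested this way, about 300 (0.46%) reached 50% or more in at least one test.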
TcHisRS: 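Histidine-tRNA ligase, Trypanosoma cruzi CL Brener (UniProt Q4DA54). Enzyme assay of histidyl-tRNA synthetase; the read-out is not stated. Compounds at 30 µM. The record gives no direction; compounds that gave an IC50 in retests scored well above the rest, so higher reads as stronger inhibition. Of about 69,000 compounds tested this way, about 31 (0.045%) reached 50% or more in at least one test.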
ClpP1P2: 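Protease assay of ClpP1P2, read by the AMC dye that it sets free. Target: ClpP1P2, Mycobacterium tuberculosis (UniProt P9WPC5 and UniProt P9WPC3). Concentration: 50 µM. Direction is inferred from only a few compounds that gave an IC50; most scored high, so higher reads as stronger inhibition. Most other retested compounds had strongly negative values. About 69,000 compounds were tested under these conditions; 0.015% (about 10) showed 50% or more at least once.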
Leishmania in macrophages: 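Cell assay of Leishmania donovani living inside macrophages; the read-out is not stated. Compounds at 30 µM. Direction is inferred from retests: higher values go with stronger inhibition. Size under these conditions: about 69,000 compounds, about 1,000 of them at 50% or above in at least one test.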
LiHisRS: 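Histidine-tRNA ligase, Leishmania infantum (UniProt A4I591). Enzyme assay of histidyl-tRNA synthetase; the read-out is not stated. Tested at 30 µM. Direction is inferred from retests: higher values go with stronger inhibition. The assay is labelled LdHisRS but filed under L. infantum. Of about 69,000 compounds tested this way, about 410 (0.6%) reached 50% or more in at least one test.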

| compound | Pks13 thioesterase | TcHisRS | ClpP1P2 | Leishmania in macrophages | LiHisRS |
|---|---|---|---|---|---|
| `CCC(=O)NCC(=O)NCC1(c2c(F)cccc2F)CCCC1` | -19.25% | 6.557% | 2.283% | 36.47% | 16.44% |
| `CCN(CC)c1ccc(NC(=O)N2CCc3sccc3C2)cn1` | -9.375% | 7.609% | 11.87% | 9.814% | 15.15% |
| `CNC(=O)C(C)NC(=O)c1cc(COc2ccc(OC)cc2Cl)[nH]n1` (stereo not given) | 8.706% | 9.524% | -18.43% | 2.094% | 24.81% |
| `CC(C)CCS(=O)(=O)N1CCCC(c2nncn2C(C)C)C1` (stereo not given) | 5.962% | -1.84% | -11.39% | -2.871% | 17.28% |
| `CCOc1ccc(C(=O)CCC(=O)N(C)Cc2nc(C)c[nH]2)cc1C` | -38% | 3.867% | -1.299% | -49.88% | 38.55% |
| `Cc1cccnc1NC(=O)N(CCO)Cc1ccsc1` | -3.828% | 5.917% | -29.48% | 15.07% | 23.21% |
| `O=C(Nc1ccc(N2CCOCC2)nc1)N1CCc2sccc2C1` | -18.12% | -1.087% | 7.266% | 2.053% | 24.24% |
| `CCN1CCC12CCN(C(=O)c1cc(C)on1)C2.O=C(O)C(F)(F)F` (stereo not given) | - | - | - | 11.17% | - |
| `COc1cccc2c3c(c(=O)[nH]c12)CC(C)(C)O3` | -5.04% | 4.124% | -11.73% | 13% | 5.747% |
| `Cc1c[nH]cc1C(=O)N1CCN(Cc2nc(C(C)C)no2)CC1` | -4.405% | -2.682% | 3.767% | 10.37% | 6.154% |
| `COCCCC1(CO)CCCN(Cc2cccc(C#N)c2)C1` (stereo not given) | -15.05% | 4.082% | -3.089% | -14.76% | 3.226% |
| `Cc1ccc(CCN2C(=O)CC[C@H]3CN(Cc4cnn(C)c4)CC[C@H]32)o1` | -27.77% | 5.102% | -15.6% | - | 16.13% |
| `Fc1cnccc1CN1CCC2(CCN2c2ncccn2)C1` (stereo not given) | -28.23% | 6.522% | -2.549% | - | 27.63% |
| `c1ccc(C2CN(CCc3ccncc3)CCO2)cc1` (stereo not given) | -6.529% | 8.911% | -6.314% | 24.63% | 20.88% |
| `Cc1ccc(CN[C@@H]2COC[C@H]2Cc2cc(C)no2)cc1.O=C(O)CC(O)(CC(=O)O)C(=O)O` | - | - | - | -7.248% | - |
| `[H][C@]12CCC(=O)N[C@@]1(C)CCCCN2Cc1ccc(F)c(OC)c1` | - | - | - | 30.06% | - |
| `CN(C(=O)C1CCCC1)C(c1cccc(F)c1)c1ccccn1` (stereo not given) | -16.47% | 4% | -1.913% | 2.136% | 19.23% |
| `Cc1ccc(CNC(=O)NC2CCCc3c2cnn3CCO)cn1` (stereo not given) | 1.165% | 15% | 10.13% | 21.29% | 15.18% |
| `Cc1ccc(C(=O)N2CCC3(CCC(=O)N(CC(N)=O)C3)CC2)cc1` | -10.91% | 1.339% | -9.643% | -8.473% | 16.05% |
| `COCCn1/c(=N\C(=O)CN(C)S(C)(=O)=O)sc2cc(Cl)ccc21` | -7.879% | 1.463% | 9.397% | -21.61% | 6.78% |
| `CS(=O)(=O)CC1CCCN(C(=O)Cn2cccc(C(F)(F)F)c2=O)C1` (stereo not given) | 24.97% | 1.622% | -5.553% | -9.382% | -3.419% |
| `Cc1noc(C)c1C(=O)NCCSCc1cccs1` | -26.32% | 2.041% | -9.089% | -5.686% | 11.01% |
| `Cc1cccc(-n2cc(C(=O)N3CCn4c(C)nnc4C3)nn2)c1` | -6.676% | 4.959% | -3.925% | -9.838% | 0% |
| `[H][C@]12CC[C@]([H])(CN(C3Cc4ccccc4C3)C1)N(Cc1nc(CC)no1)C2` | - | - | - | 39.3% | - |
| `OC1(CN2CCC(Cc3ccccc3)CC2)CCC1` | -41.79% | 4.459% | 4.925% | 20.22% | 9.859% |
| `Nc1ncc(-c2csc(NC(=O)C[C@H]3COCCN3)n2)cn1` | 4.471% | -2.26% | -1.946% | - | 8.571% |
| `CC(C)c1cc(NC(=O)Cn2ccc(=O)c3ccccc32)[nH]n1` | -7.424% | 3.704% | 2.076% | -2.013% | 1.333% |
| `NC(=O)c1cnc(-c2ccccc2)nc1CCNC(=O)CN1CCCC1` | -7.237% | 3.846% | -9.329% | 20.64% | 5.634% |
| `Cc1cc(N2CCN3CCCCC3C2)n2nc(C)c(C)c2n1` (stereo not given) | -9.749% | 0% | 3.393% | 0.09518% | 24.04% |
| `CC(=O)CSc1nnc2n1N=CN(c1cccc(Cl)c1)C2` | -14.66% | 8.247% | -3.65% | -14.53% | 19.54% |
| `Cc1noc(CCCNC(=O)N2CCc3ccccc3C2CO)n1` (stereo not given) | -1.346% | 3.333% | -3.48% | -1.714% | -8.108% |
| `Cc1nc(C2CCCN(C(=O)c3cccc4c3OCCO4)C2)no1` (stereo not given) | -9.208% | 5.634% | 5.291% | 37.37% | 11.3% |
| `O=C(c1cccs1)N1CC[C@@H]2CN(C3CCOCC3)CCO[C@@H]2C1` | 0.4907% | 4.523% | 0.3294% | - | 13.86% |
| `Cc1nc(NC2CCCC2)cc(C2CCN2C(=O)c2cnn(C)c2)n1` (stereo not given) | - | 4.255% | -3.964% | 7.846% | 17.71% |
| `Cc1ccoc1C(=O)N1CC[C@H]2[C@@H]1CCC(=O)N2c1cccnc1` | -3.788% | 9.184% | 2.473% | - | 23% |
| `OC1CCN(c2cncc(CCC3CCCN3)n2)CC1` (stereo not given) | 17.28% | 4.545% | -0.5812% | - | 14.49% |
| `CC(C)c1nc(N2CC(N3CCCCC3C)C2)c2cnn(C)c2n1` (stereo not given) | -14.02% | 2.479% | -1.526% | 12.68% | -1.905% |
| `N#Cc1cccc(S(=O)(=O)N(CC2CCC2)c2cn[nH]c2)c1` | 8.824% | 0% | -14.97% | -3.232% | -2.679% |
| `CCc1cn[nH]c1C1CCCN(C(=O)c2noc(C)c2COC)C1` (stereo not given) | -22.53% | 1.093% | 4.879% | 38.47% | 13.7% |
| `O=C(O)C(F)(F)F.O=C(O)C(F)(F)F.O=C(O)C(F)(F)F.[H][C@@]12CN(Cc3ccncc3)C[C@]1([H])[C@@H](OC)CCN2Cc1cnn(C)c1` | - | - | - | 19.39% | - |
| `O=C(NCc1ccco1)[C@@H]1CCO[C@@H]2CCN(c3ccncn3)C[C@H]21` | -13.24% | 1.622% | -7.324% | - | 15.09% |

For reference, 5 entries once more:

{"compound": "Cc1nc(C2CCCN(C(=O)c3cccc4c3OCCO4)C2)no1", "stereo": "stereo not given", "Pks13 thioesterase": -9.208, "TcHisRS": 5.634, "ClpP1P2": 5.291, "Leishmania in macrophages": 37.37, "LiHisRS": 11.3}
{"compound": "c1ccc(C2CN(CCc3ccncc3)CCO2)cc1", "stereo": "stereo not given", "Pks13 thioesterase": -6.529, "TcHisRS": 8.911, "ClpP1P2": -6.314, "Leishmania in macrophages": 24.63, "LiHisRS": 20.88}
{"compound": "NC(=O)c1cnc(-c2ccccc2)nc1CCNC(=O)CN1CCCC1", "Pks13 thioesterase": -7.237, "TcHisRS": 3.846, "ClpP1P2": -9.329, "Leishmania in macrophages": 20.64, "LiHisRS": 5.634}
{"compound": "Nc1ncc(-c2csc(NC(=O)C[C@H]3COCCN3)n2)cn1", "Pks13 thioesterase": 4.471, "TcHisRS": -2.26, "ClpP1P2": -1.946, "LiHisRS": 8.571}
{"compound": "OC1CCN(c2cncc(CCC3CCCN3)n2)CC1", "stereo": "stereo not given", "Pks13 thioesterase": 17.28, "TcHisRS": 4.545, "ClpP1P2": -0.5812, "LiHisRS": 14.49}